Results taken from patent US20210009685A1 (ALTEOGEN, published 2021).
No constants are given. Whether binding was seen depends on the method and setting. Some entries that bind do so weakly or less than the wild type.

Protein sequences, listed by entry. Tags and fused reporters are not part of them. Residues count along the entry.
UniProt P15328, residues 25-234: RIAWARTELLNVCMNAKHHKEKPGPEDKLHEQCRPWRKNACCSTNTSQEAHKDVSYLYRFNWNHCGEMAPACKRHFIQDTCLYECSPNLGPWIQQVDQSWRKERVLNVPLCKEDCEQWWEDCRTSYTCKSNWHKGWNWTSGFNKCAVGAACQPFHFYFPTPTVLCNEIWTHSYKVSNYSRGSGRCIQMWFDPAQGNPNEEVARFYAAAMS

B1: Modified antibody vAb1 (antibody, V domains shown)
VH: EVQLVESGGGVVQPGRSLRLSCSASGFTFSGYGLSWVRQAPGKGLEWVAMISSGGSYTYYADSVKGRFAISRDNAKNTLFLQMDSLRPEDTGVYFCARHGDDVAWFAYWGQGTPVTVSS
VL: DIQLTQSPSSLSASVGDRVTITCSASSGLSSSYLHWYQQKPGKAPKPWIYGTSSRASGVPSRFSGSGSGTDYTFTISSLQPEDIATYYCQQWSSYPYMYTFGQGTKVEIK
notes: Carries modified CDR-H3, CDR-L1 and CDR-L2
B2: Modified antibody vAb2 (antibody, V domains shown)
VH: EVQLVESGGGVVQPGRSLRLSCSASGFTFSGYGLSWVRQAPGKGLEWVAMISSGGSYTYYADSVKGRFAISRDNAKNTLFLQMDSLRPEDTGVYFCARHGDDPAWFAYWGQGTPVTVSS
VL: DIQLTQSPSSLSASVGDRVTITCSASSGLSSSYLHWYQQKPGKAPKPWIYGTSSRASGVPSRFSGSGSGTDYTFTISSLQPEDIATYYCQQWSSYPYMYTFGQGTKVEIK
notes: Carries modified CDR-L1 and CDR-L2
B3: Modified antibody vAb3 (antibody, V domains shown)
VH: EVQLVESGGGVVQPGRSLRLSCSASGFTFSGYGLSWVRQAPGKGLEWVAMISSGGSYTYYADSVKGRFAISRDNAKNTLFLQMDSLRPEDTGVYFCARHGDDPAWFAYWGQGTPVTVSS
VL: DIQLTQSPSSLSASVGDRVTITCSASSGLSSSYLHWYQQKPGKAPKPWIYGTSNLASGVPSRFSGSGSGTDYTFTISSLQPEDIATYYCQQWSSYPYMYTFGQGTKVEIK
notes: Carries modified CDR-L1
B4: Modified antibody vAb4 (antibody, V domains shown)
VH: EVQLVESGGGVVQPGRSLRLSCSASGFTFSGYGLSWVRQAPGKGLEWVAMISSGGSYTYYADSVKGRFAISRDNAKNTLFLQMDSLRPEDTGVYFCARHGDDPAWFAYWGQGTPVTVSS
VL: DIQLTQSPSSLSASVGDRVTITCSVSSSISSNNLHWYQQKPGKAPKPWIYGTSSRASGVPSRFSGSGSGTDYTFTISSLQPEDIATYYCQQWSSYPYMYTFGQGTKVEIK
notes: Carries modified CDR-L2
B5: Modified antibody vAb5 (antibody, V domains shown)
VH: EVQLVESGGGVVQPGRSLRLSCSASGFTFSGYGLSWVRQAPGKGLEWVAMISSGGSYTYYADSVKGRFAISRDNAKNTLFLQMDSLRPEDTGVYFCARHGDDVAWFAYWGQGTPVTVSS
VL: DIQLTQSPSSLSASVGDRVTITCSVSSSISSNNLHWYQQKPGKAPKPWIYGTSNLASGVPSRFSGSGSGTDYTFTISSLQPEDIATYYCQQWSSYPYMYTFGQGTKVEIK
notes: Carries modified CDR-H3
B6: Parent antibody (anti-FOLR1 antibody of US2005/0232919 A1) (antibody, V domains shown)
VH: EVQLVESGGGVVQPGRSLRLSCSASGFTFSGYGLSWVRQAPGKGLEWVAMISSGGSYTYYADSVKGRFAISRDNAKNTLFLQMDSLRPEDTGVYFCARHGDDPAWFAYWGQGTPVTVSS
VL: DIQLTQSPSSLSASVGDRVTITCSVSSSISSNNLHWYQQKPGKAPKPWIYGTSNLASGVPSRFSGSGSGTDYTFTISSLQPEDIATYYCQQWSSYPYMYTFGQGTKVEIK
notes: also called WT
B7: CDR-H3 library clones B4, B8, C4, C6, C10, G5 (Fab, V domains shown)
VH: EVQLVESGGGVVQPGRSLRLSCSASGFTFSGYGLSWVRQAPGKGLEWVAMISSGGSYTYYADSVKGRFAISRDNAKNTLFLQMDSLRPEDTGVYFCARHGDDVAWFAYWGQGTPVTVSS
VL: DIQLTQSPSSLSASVGDRVTITCSVSSSISSNNLHWYQQKPGKAPKPWIYGTSNLASGVPSRFSGSGSGTDYTFTISSLQPEDIATYYCQQWSSYPYMYTFGQGTKVEIK
B8: CDR-H3 library clone C8 (Fab, V domains shown)
VH: EVQLVESGGGVVQPGRSLRLSCSASGFTFSGYGLSWVRQAPGKGLEWVAMISSGGSYTYYADSVKGRFAISRDNAKNTLFLQMDSLRPEDTGVYFCARHGDDIAWFAYWGQGTPVTVSS
VL: DIQLTQSPSSLSASVGDRVTITCSVSSSISSNNLHWYQQKPGKAPKPWIYGTSNLASGVPSRFSGSGSGTDYTFTISSLQPEDIATYYCQQWSSYPYMYTFGQGTKVEIK

molecular target: T1, FOLR1-Fc (UniProt P15328 25-234, limits assumed); test: ELISA, FOLR1-Fc coated
T1 construct: also called FOLR1 (ELISA coating); not shown: Fc part
Method: For the purpose of comparing the binding affinities of the primarily selected clones with each other, ELISA was performed at different clone concentrations in the following manner. 25 μL of FOLR1 was added to each well of a 96-well plate at a concentration of 1 μg/mL, coated on the plate at room temperature for 1 hour, and then blocked with 180 μL of 3% skim milk at room temperature for 1 hour. During blocking, samples to be used as primary antibodies were prepared. As primary antibodies, samples selected by screening were used. The samples were diluted to a concentration of 0.1 to 100 nM (0, 0.1, 0.3, 1, 3, 10, 30, and 100 nM) and cold-stored until use. After blocking, 3% skim milk was removed, and 25 μL of the primary antibody was added to each well and allowed to react at room temperature for 1 hour or more. After completion of the reaction, each well was washed three times with PBS-Tween20 (0.1%) buffer. As a secondary antibody, HA-HRP was diluted 3,000-fold with 3% skim milk, and 25 μL of the dilution was added to each well and allowed to react at room temperature for 1 hour or more. After completion of the reaction, each well was washed three times with PBS-Tween20 (0.1%), and 25 μL of substrate TMB was added to each well to confirm color development. After about 5 minutes, 25 μL of 1 M H₂SO₄ was added to each well to stop the reaction, and the absorbance at a wavelength of 450 nm was measured. From the measurement results, the EC (Effector concentration) value was calculated using the GraphPad Prism 7 program.
The measured values are obtained in different experiments for comparison with the parent antibody.

binding, binds:
B1, B2, B3, B4, B5

molecular target: T1, FOLR1-Fc; test: ELISA, FOLR1-Fc coated on the plate, antibody titrated

binding, binds:
B6, B1

molecular target: T2, Folate receptor alpha (FOLR1) (human, UniProt P15328 25-234, limits assumed); test: screening ELISA of panned phage library clones on FOLR1
T2 construct: Antigen printed simply as FOLR1 for the panning, the clone ELISA and the SPR chip; also called human FOLR1; folate receptor-α

binding, binds:
B7, B8
